Test results: patent US20180148506A1
No constants are given. Whether binding was seen depends on the method and setting. Some binding calls cover weakened binding; strength is not graded here.

Amino acid sequences for entries named in this document (tags omitted). Residues count along the entry.
UniProt P09564, residues 26-240: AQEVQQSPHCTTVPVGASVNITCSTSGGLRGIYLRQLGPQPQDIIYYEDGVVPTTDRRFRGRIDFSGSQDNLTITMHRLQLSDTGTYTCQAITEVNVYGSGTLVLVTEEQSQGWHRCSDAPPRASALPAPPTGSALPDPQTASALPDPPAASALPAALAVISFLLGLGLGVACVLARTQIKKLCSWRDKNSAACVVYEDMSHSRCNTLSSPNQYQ

Columns and labels:
[1] = molecular target: CD7 (Cluster of Differentiation 7) (human) (UniProt P09564); test: flow cytometry: supernatant of Jurkat cells transduced with anti-CD7 scFv on CD7+ MOLT-4 cells
[2] = molecular target: CD7 (Cluster of Differentiation 7) (human) (UniProt P09564); test: flow cytometry: soluble scFv supernatant on CD7+ MOLT-4 cells, detected with biotin goat anti-mouse F(ab')2 and streptavidin-APC

B1: soluble anti-CD7 scFv (single chain variable fragment of the anti-CD7 monoclonal antibody TH69) (scFv)
scFv: AAYKDIQMTQTTSSLSASLGDRVTISCSASQGISNYLNWYQQKPDGTVKLLIYYTSSLHSGVPSRFSGSGSGTDYSLTISNLEPEDIATYYCQQYSKLPYTFGGGTKLEIKRGGGGSGGGGSGGGGSGGGGSEVQLVESGGGLVKPGGSLKLSCAASGLTFSSYAMSWVRQTPEKRLEWVASISSGGFTYYPDSVKGRFTISRDNARNILYLQMSSLRSEDTAMYYCARDEVRGYLDVWGAGTTVTVSS
- binding [1]: binds
- binding [2]: binds
